The list shows only some results of the screen, not a fair sample: it is rich in T/C values a quarter to a half above the control, in often repeated tests (any T/C) and in doses without a T/C. Further doses and runs are listed elsewhere. T/C gives the treated animals as a percentage of the vehicle group. Schedule codes are those of the source, read here as Q, the interval in days (D) or hours (H), X, the number of doses. Some T/C values are followed by the survivors on the day toxicity was checked, most often the fifth; without a count, all were alive then. Some entries give survivors of the animals treated and no T/C: the source files T/C as zero there, which appears to mark a toxic dose or a test without result, not a measured value. Counts of survivors are from the toxicity check (mostly the fifth day) where no day follows; animals may have died later.
Tested on: MX-1 breast xenograft, nude mice, tumor weight T/C
Test: NCI In Vivo Anticancer Drug Screen. Data for tumor model Human Mammary Carcinoma MX-1 Xenograft (intrarenal inoculation) in NU/NU Swiss (nude) mice
Settings: T/C endpoint: mean tumor weight change, higher T/C = larger tumour; for T/C: evaluated on day 11
How it was run: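 Read-out: treated (T) over vehicle control (C) ratio of survival or tumor size. Dosing in animals carrying the transplanted tumor.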

[1] = dose: 12.5 mg/kg/injection, schedule: Q01DX010 (sc), vehicle: saline
[2] = dose: 300.0 mg/kg/injection, schedule: Q04DX003 (sc), vehicle: suspension in saline
[3] = dose: 600.0 mg/kg/injection, schedule: Q04DX003 (sc), vehicle: suspension in saline
[4] = dose: 1200.0 mg/kg/injection, schedule: Q04DX003 (sc), vehicle: suspension in saline

## CC[N](CC)[Ge]([CH2]C)[CH2]C.CC[N](CC)[Ge]([CH2]C)[CH2]C
dose: 100.0 mg/kg/injection, schedule: Q01DX010 (sc), vehicle: saline
  survivor count: 0 of 3 on day 11

## O=C1N=C(Oc2ccccc2)SC1=O
dose: 100.0 mg/kg/injection, schedule: Q04DX003 (sc), vehicle: saline with Tween-80
  T/C: 127 % of control
dose: 200.0 mg/kg/injection, schedule: Q04DX003 (sc), vehicle: saline with Tween-80
  T/C: 139 % of control
dose: 800.0 mg/kg/injection, schedule: Q04DX003 (sc), vehicle: saline with Tween-80
  survivor count: 3 of 6 on day 11

## Nc1nncs1
[1]
  T/C: 144 % of control [2 of 2 alive on day 11]

## C[Si](C)(C)O/C=C1/CCOC1=O
[2]
  T/C: 133 % of control
[3]
  T/C: 127 % of control

## C[n+]1c2cc(N)ccc2cc2ccc(N)cc21
[1]
  survivor count: 0 of 3 on day 11

## Cc1cc(NS(=O)(=O)c2ccc(N=Nc3cc(N=Nc4ccc(S(=O)(=O)Nc5cc(C)nc(C)n5)cc4)c4c(NC(=O)C(Cl)Cl)cccc4c3OC(=O)C(Cl)Cl)cc2)nc(C)n1 (tested in a mixture with another compound)
[2]
  T/C: 148 % of control
[3]
  T/C: 136 % of control
[4]
  T/C: 129 % of control

## CCCCCCNc1nc(NCCCCCC)c2[nH]c(NCCCCCC)nc2n1
dose: 150.0 mg/kg/injection, schedule: Q04DX003 (ip), vehicle: saline with Tween-80
  T/C: 128 % of control [5 of 6 alive on day 11]
dose: 600.0 mg/kg/injection, schedule: Q04DX003 (ip), vehicle: saline with Tween-80
  survivor count: 0 of 6 on day 11
dose: 1200.0 mg/kg/injection, schedule: Q04DX003 (ip), vehicle: saline with Tween-80
  survivor count: 0 of 6 on day 11

## CC1(C)OCC2OC=CC(=O)C2O1 (stereo unspecified)
dose: 1200.0 mg/kg/injection, schedule: Q04DX003 (sc), vehicle: saline with Tween-80
  survivor count: 0 of 6 on day 11

## Cc1ccccc1SSc1ccccc1C
dose: 100.0 mg/kg/injection, schedule: Q01DX010 (sc), vehicle: saline with Tween-80
  T/C: 134 % of control

## COc1ccc(/C=C/C(=O)c2cc(C(=O)O)c(OC)cc2OC)cc1OC
[3]
  T/C: 134 % of control
[4]
  T/C: 127 % of control
dose: 2400.0 mg/kg/injection, schedule: Q04DX003 (sc), vehicle: suspension in saline
  T/C: 126 % of control

## CC1CCC(NC(=O)N(CCCl)N=O)CC1 (stereo unspecified)
dose: 25.0 mg/kg/injection, schedule: Q01DX010 (sc), vehicle: Klucel (hydroxypropylcellulose) (HPC)
  survivor count: 0 of 3 on day 11
dose: 50.0 mg/kg/injection, schedule: Q01DX010 (sc), vehicle: Klucel (hydroxypropylcellulose) (HPC)
  survivor count: 0 of 3 on day 11

## CC1=CC(C)(C)Nc2ccc(CSc3ccccc3)cc21
dose: 12.5 mg/kg/injection, schedule: Q01DX010 (sc), vehicle: saline + Tween-80 + alcohol
  T/C: 141 % of control
dose: 400.0 mg/kg/injection, schedule: Q01DX010 (sc), vehicle: saline + Tween-80 + alcohol
  T/C: 136 % of control [2 of 2 alive on day 11]

## CCOC(=O)C(N)C[S][Sn]([CH3])([CH3])[Cl] (stereo unspecified)
dose: 37.5 mg/kg/injection, schedule: Q04DX003 (sc), vehicle: saline
  T/C: 138 % of control
dose: 150.0 mg/kg/injection, schedule: Q04DX003 (sc), vehicle: saline
  survivor count: 2 of 6 on day 11
dose: 300.0 mg/kg/injection, schedule: Q04DX003 (sc), vehicle: saline
  survivor count: 0 of 6 on day 11
